Results reported in article PMC9655011.
Results are given in words; binding and its absence hold for the method and conditions named. In cells and extracts the contact can be indirect.

Sequences of proteins named here, by UniProt entry; tags and fusion partners are left off. Residues count along the entry.
UniProt P03950, residues 25-147: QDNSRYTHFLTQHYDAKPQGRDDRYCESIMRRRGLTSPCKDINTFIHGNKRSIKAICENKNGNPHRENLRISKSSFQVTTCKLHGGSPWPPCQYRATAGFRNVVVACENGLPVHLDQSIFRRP

Target: C-terminally His-tagged ANG (angiogenin) (human) (UniProt P03950)
Assay: co-IP; ANG-His precipitated from U2OS cytoplasmic lysate (0.5% NP-40 in PBS, diluted 10 times with 0.1% NP-40 in PBS) with anti-6xHistidine antibody on Protein G Sepharose, room temperature 1 h; Western blot for RNH1 and RTCB; non-stress cells, and cells treated 2 h with sodium arsenite 500 uM, H2O2 1 mM, menadione 100 uM, with or without N-acetyl-L-cysteine 5 mM

binding: no binding
B1: RTCB (enzyme, UniProt Q9Y3I0 1-505)
chain: MSRSYNDELQFLEKINKNCWRIKKGFVPNMQVEGVFYVNDALEKLMFEELRNACRGGGVGGFLPAMKQIGNVAALPGIVHRSIGLPDVHSGYGFAIGNMAAFDMNDPEAVVSPGGVGFDINCGVRLLRTNLDESDVQPVKEQLAQAMFDHIPVGVGSKGVIPMNAKDLEEALEMGVDWSLREGYAWAEDKEHCEEYGRMLQADPNKVSARAKKRGLPQLGTLGAGNHYAEIQVVDEIFNEYAAKKMGIDHKGQVCVMIHSGSRGLGHQVATDALVAMEKAMKRDKIIVNDRQLACARIASPEGQDYLKGMAAAGNYAWVNRSSMTFLTRQAFAKVFNTTPDDLDLHVIYDVSHNIAKVEQHVVDGKERTLLVHRKGSTRAFPPHHPLIAVDYQLTGQPVLIGGTMGTCSYVLTGTEQGMTETFGTTCHGAGRALSRAKSRRNLDFQDVLDKLADMGIAIRVASPKLVMEEAPESYKNVTDVVNTCHDAGISKKAIKLRPIAVIKG
